Data as given in PubChem BioAssay AID1259415 (National Center for Advancing Translational Sciences (NCATS), 2018).
Values joined by “and” are separate entries in the source; they are usually repeats but may differ in a detail not shown here. Equal entries are not always repeated. Among all 410,000 compounds or so, about 18,000 (4.4%) were called active. Inconclusive means that the source gave no clear call. Such entries were picked first, then a sample of the others. Rule as the data show it: active = activity change below about -60%; inconclusive = no clear call, values can overlap the other calls; inactive = above about -39%. A structure can be active in one record and inactive in another.

Assay: qHTS Assay for inhibitors of the human cytomegalovirus (HCMV)
Details: HFF cells, HCMV-luciferase reporter, 72 h; at 57.5 µM; stronger effect = lower value
Summary of the method: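 Inhibition of viral replication was scored as loss of reporter luminescence in HFFs infected with HCMV-luciferase (MOI 1 PFU/cell) for 72 h; compounds tested at 2 doses, normalized to buffer and Salinomycin controls.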
% is scaled to controls: 0 for no effect and ±100 for the full control effect.

Row | SMILES | activity change, negative = inhibition
1 | COc1ccccc1C(=O)Nc1ccc(Oc2nnc(-c3ccc(C)cc3)c3ccccc23)cc1 | active: -69.6%
2 | COc1ccc(N2CCN(c3c(S(=O)(=O)c4ccccc4)cnc4ccc(OC)cc34)CC2)cc1 | inconclusive: -43.4%
3 | CCNc1nc(NCC)nc(-n2nc(C)cc2C)n1 | inconclusive: -42.3%
4 | Cc1cc(C(=O)CSc2nc(N)cc(=O)[nH]2)c(C)n1-c1ccc(OC(F)F)cc1 | active: -106%
5 | COC(=O)c1ccccc1OC(=O)c1cc[n+]([O-])cc1 | inconclusive: -44%
6 | Cc1nc2ccccc2nc1N1CCCC1 | inconclusive: -46.3%
7 | CCOC1=NN(c2ncc(C(F)(F)F)cc2Cl)C(=O)C1 | inconclusive: -46%
8 | CN1CCN(C(=O)C(=O)c2cn(CC(=O)N3CCCC3)c3ccccc23)CC1 | inconclusive: -49.8%
9 | CCc1c(C)nc(SCC(=O)Nc2nc(-c3ccc(OC)cc3)cs2)[nH]c1=O | inconclusive: -47.9%
10 | CC1(C(=O)O)CCCN(C(=O)c2ccc(OC(F)F)cc2)C1 (stereo not given) | inactive: -2.35%
11 | CC(=O)Nc1nc2ccccc2n1Cc1ccccc1C | inconclusive: -54.1%
12 | CN(C)c1cccc(C(=O)NNC(=O)CSc2ccccc2)c1 | inactive: -34.1%
13 | Cc1ccc(S(=O)(=O)N(C)C(=O)NC(=O)NS(=O)(=O)c2ccccc2)cc1 | inconclusive: -44.7%
14 | Cc1ccc(Cl)cc1NC(=O)CCC(=O)N1CC(C)Sc2ccccc21 (stereo not given) | inconclusive: -50.9%
15 | Nc1nonc1-n1nnc(C(=O)N/N=C/c2cc(Cl)ccc2O)c1CN1CCCCCC1 | inconclusive: -54.9%
16 | Cc1ccc(C)c(NC(=O)CN(C)C(=O)COc2cccc3c2OC(C)(C)C3)c1 | inactive: -16.2%
17 | O=c1[nH]c2ccccc2nc1/C=C/c1ccc(O)cc1 | inconclusive: -53%
18 | CCCCCCC(=O)Nc1nc(C)c(-c2csc(Nc3cc(OC)ccc3OC)n2)s1 | inactive: 2.74%
19 | Cc1cc(C(=O)C[N+]2(C)CCOCC2)c(C)n1-c1ccc(Br)cc1 | inconclusive: -45.5%
20 | CC(=O)c1cccc(NS(=O)(=O)c2ccc(NC(=O)N3CCCCC3)cc2)c1 | active: -70.8%
21 | CCN(CC)S(=O)(=O)c1ccc(C(=O)NCC(=O)N/N=C/c2ccccc2OC)cc1 | inconclusive: -44.1%
22 | O=C(NC1CCCCC1)/C(=C/c1ccc(Cl)cc1)NC(=O)c1ccccc1 | inactive: 6.22%
23 | COc1ccc(CN2CC(=O)N(c3cccc(Cl)c3)C2=S)cc1OC | inconclusive: -46.6%
24 | CSc1ccc(CCNC(=O)c2nn(C)c3c2CS(=O)(=O)c2ccccc2-3)cc1 | inconclusive: -40.5%
25 | CCOCCn1ccc2c(OCC(=O)NCc3ccccc3)cccc2c1=O | inactive: -6.59%
26 | CC(=O)c1c(C)[nH]c(C(=O)NNC(=O)COc2ccc(Cl)cc2C)c1C | inconclusive: -46.9%
27 | N#C/C(=C\c1cccnc1)c1ccccc1[N+](=O)[O-] | inconclusive: -53%
28 | Cc1ccc(CNC(=O)c2ccc(Br)o2)cc1 | inactive: 12.5%

Random excerpt: 3 records from the list, in no set order.
Row | SMILES | activity change, negative = inhibition
7 | CCOC1=NN(c2ncc(C(F)(F)F)cc2Cl)C(=O)C1 | inconclusive: -46%
10 | CC1(C(=O)O)CCCN(C(=O)c2ccc(OC(F)F)cc2)C1 (stereo not given) | inactive: -2.35%
18 | CCCCCCC(=O)Nc1nc(C)c(-c2csc(Nc3cc(OC)ccc3OC)n2)s1 | inactive: 2.74%

Continued.

Row | SMILES | activity change, negative = inhibition
29 | COC(=O)c1c(-c2ccc(C(C)(C)C)cc2)csc1NC(=O)C1C2CCC(O2)C1C(=O)O (stereo not given) | inconclusive: -59.3%
30 | c1cc2c(cc1-c1cnc3n1CCC3)OCCO2 | inconclusive: -42.9%
31 | Cn1c(CN2CCCCC2)nc2cc(NC(=O)c3ccc(Cl)cc3)ccc21 | active: -92.4% and active: -67.4%
32 | Cc1ccccc1CSc1nnc(CCCCCNC(=O)OC(C)(C)C)o1 | inconclusive: -42.4%
33 | CC(C)Cn1c(=O)c2sccc2n2c(CCCC(=O)N3CCC(N4CCCCC4)CC3)nnc12 | inconclusive: -41.2%
34 | S=C(NCC1CCCO1)Nc1ccc(Nc2ccccc2)cc1 (stereo not given) | active: -69%
35 | O=C(NCc1ccccn1)C1CCCN(S(=O)(=O)c2ccccc2)C1 (stereo not given) | inconclusive: -45.7%
36 | Cc1ccccc1C(=O)Nc1ccc(C(=O)OCc2cc(=O)n3c4c(sc3n2)CCCC4)cc1 | inactive: -29.6%
37 | COCCNc1nc(-c2cc(C)n(CCc3ccc(OC)cc3)c2C)cs1 | inactive: 9.53%
38 | Cc1cc(C(=O)COC(=O)CNC(=O)c2ccc(F)cc2)c(C)n1Cc1ccco1 | inconclusive: -47.1%
39 | NNC(=O)c1[nH]c2ccc(Br)cc2c1-c1ccccc1 | active: -96.1%
40 | COC(=O)c1ccccc1NC(=O)CCCOc1cc(=O)n(C)c2ccccc12 | active: -99.4%
41 | O=C(CCn1c(=O)c2cccn2c2cccnc21)N1CCN(c2ccc(Cl)cc2)CC1 | inconclusive: -43.6%
42 | COc1ccc2nc(N/C(N)=N/C(=S)Nc3c(C)cccc3C)nc(C)c2c1 | active: -71.4%
43 | O=c1cc(-c2ccccc2)[nH]c2ccccc12 | active: -76.3%
44 | Cc1cccc(OCCCCn2c(C3CC(=O)N(c4ccc(C)cc4C)C3)nc3ccccc32)c1 (stereo not given) | inconclusive: -42.3%
45 | COc1ccc(-c2[nH]ncc2/C=C(/C#N)C(=O)NC2CCCCCC2)cc1 | inconclusive: -41.8%
46 | O=C(Nc1nc(-c2ccc(Cl)cc2)cs1)c1cccnc1 | inactive: 11.7%
47 | O=C1N(Cc2cccnc2)C[C@@H]2C[C@@H](c3cccc(OC4CCCC4)c3)N3CCC[C@@]123 | inconclusive: -41.4%
48 | COc1ccc(C)cc1NC(=O)c1ccc(S(=O)(=O)N2CCCCC2)cc1 | inconclusive: -48.3%
49 | Cc1onc(-c2ccccc2)c1CNC(=O)Nc1ccc(C(F)(F)F)cc1 | inconclusive: -52.4%
50 | Cc1ccc(S(=O)(=O)N2CCCc3cc(NC(=O)c4c(F)cccc4F)ccc32)cc1 | inactive: -24.1% and active: -69.2%
51 | O=C(COc1ccccc1C(=O)Nc1ccccc1)c1ccc(F)cc1 | inconclusive: -56.8%
52 | C/C(=N\NC(=O)c1cccc(Br)c1)c1ccccn1 | active: -103%
53 | CCCCCCCC(=O)Nc1ccc(C(=O)N/N=C/c2cccc([N+](=O)[O-])c2)cc1 | active: -69.4%
54 | O=C(NNC(=O)[C@H]1CC=CC[C@H]1C(=O)O)c1ccc(Cl)cc1Cl | inconclusive: -47.3%
55 | COc1ccc(S(=O)(=O)N2CCCN(CC(=O)Nc3ccccc3F)CC2)cc1 | inconclusive: -40.7%
